The subject of one data set is RPA. Description: EMSA. Particulars: EMSA: 25 mM Tris-HCl pH 7.5, 1 mM DTT, 5 mM MgCl2, 100 mM NaCl, 20 min at 37 C; 10 nM substrate; protein 22-167 nM (RPA 5-40 nM); 7.5% native PAGE, 0.5x TBE, 4 C; recombinant protein; label: 5' Cy3 on strand 1.
For data set [1], the target named is hSSB1 Y74A (Homo sapiens) (UniProt Q9BQ15). Description: EMSA. Particulars: EMSA: 25 mM Tris-HCl pH 7.5, 1 mM DTT, 5 mM MgCl2, 100 mM NaCl, 20 min at 37 C, 10 nM substrate, protein 22-167 nM (RPA 5-40 nM), 7.5% native PAGE, 0.5x TBE, 4 C, recombinant protein.
In the next data set the target is hSSB1 (Homo sapiens) (UniProt Q9BQ15). Description: competition EMSA. Particulars: substrate pre-coated with RPA (10 or 30 nM); EMSA: 25 mM Tris-HCl pH 7.5, 1 mM DTT, 5 mM MgCl2, 100 mM NaCl, 20 min at 37 C; 10 nM substrate; protein 22-167 nM (RPA 5-40 nM); 7.5% native PAGE, 0.5x TBE, 4 C; recombinant protein; protein details: His6 (2BT); label: 5' Cy3 on strand 1.

Amino acid sequences for entries named in this document (tags omitted).
UniProt Q9BQ15, whole entry Y74A: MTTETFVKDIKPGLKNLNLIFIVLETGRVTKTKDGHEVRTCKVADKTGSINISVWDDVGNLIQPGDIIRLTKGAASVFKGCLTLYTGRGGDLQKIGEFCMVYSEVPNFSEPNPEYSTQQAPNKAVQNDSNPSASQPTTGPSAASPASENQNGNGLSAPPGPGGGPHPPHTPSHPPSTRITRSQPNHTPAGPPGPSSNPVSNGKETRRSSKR
UniProt Q9BQ15, whole entry Y85A: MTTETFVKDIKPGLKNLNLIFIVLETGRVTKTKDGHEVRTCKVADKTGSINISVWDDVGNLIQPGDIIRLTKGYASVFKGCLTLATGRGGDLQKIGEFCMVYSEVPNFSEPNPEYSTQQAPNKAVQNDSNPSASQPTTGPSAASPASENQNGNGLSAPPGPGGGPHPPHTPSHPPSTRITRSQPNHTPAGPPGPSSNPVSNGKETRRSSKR

Data set [2] addresses hSSB1 Y85A (Homo sapiens) (UniProt Q9BQ15). Description: EMSA. Particulars: EMSA: 25 mM Tris-HCl pH 7.5, 1 mM DTT, 5 mM MgCl2, 100 mM NaCl, 20 min at 37 C; 10 nM substrate; protein 22-167 nM (RPA 5-40 nM); 7.5% native PAGE, 0.5x TBE, 4 C; recombinant protein; label: 5' Cy3; single-stranded DNA.
The test system of data set [3] is hSSB1 + INTS3 + c9orf80. Description: EMSA. Particulars: EMSA: 25 mM Tris-HCl pH 7.5, 1 mM DTT, 5 mM MgCl2, 100 mM NaCl, 20 min at 37 C; 10 nM substrate; protein 22-167 nM (RPA 5-40 nM); 7.5% native PAGE, 0.5x TBE, 4 C; recombinant protein; protein details: His6 (2BT),His6-TEV (438B),His6-TEV (438B); label: 5' Cy3; single-stranded DNA.
The subject of data set [4] is hSSB1 + INTS3 + c9orf80. Description: competition EMSA. Particulars: substrate pre-coated with RPA (10 or 30 nM); EMSA: 25 mM Tris-HCl pH 7.5, 1 mM DTT, 5 mM MgCl2, 100 mM NaCl, 20 min at 37 C; 10 nM substrate; protein 22-167 nM (RPA 5-40 nM); 7.5% native PAGE, 0.5x TBE, 4 C; recombinant protein; protein details: His6 (2BT),His6-TEV (438B),His6-TEV (438B); label: 5' Cy3; single-stranded DNA.

Construct, isoform or probe ends are uncertain for at least one entry. For some of these results: The comparison behind a weaker result is the experiment's own reference, which may not be listed here. For some of these results: At least one verdict rests on a figure or table, not on a statement of the authors.

For “GACGCTGCCGAATTCTACCAGTGCCTTGCTAGGACATCTTTGCCCACCTGCAGGTTCACCC / GGGTGAACCTGCAGGTGGGCGGCTGCTCATCGTAGGTTAGTTGGTAGAATTCGGCAGCGTC / AAAGAUGUCCUAGCAAGGCAC [R-loop]”, the binding result is “binds” in the data set on RPA, “binds more weakly” in data set [1] (label: 5' Cy3 on strand 1) and “binds more weakly” in the data set with hSSB1 (Homo sapiens).
Consider “GACGCTGCCGAATTCTACCAGTGCCTTGCTAGGACATCTTTGCCCACCTGCAGGTTCACCC [61-mer ssDNA]”, for which the binding result in data set [2] is given as “binds more weakly”; with hSSB1 + INTS3 + c9orf80 [3], “binds”; in data set [1] (label: 5' Cy3, single-stranded DNA) it was “binds more weakly”; in the data set on hSSB1 + INTS3 + c9orf80 [4], “binds more weakly”.

Source of the values: article PMC7617797.
